Assay results reported in the supplement of paper PMC7411640.
Counter-ions that a name gives are not always drawn. The list shows a part of the results. Repeats in this data set agree poorly, so a single value says little.

System: MDA-MB-468
Experiment: phospho-S6 immunofluorescence (DAPI-normalised), per-plate z-score; higher = higher phospho-S6 signal (less pathway suppression)
Details: 24 h
Method: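 GPCR-targeted compound library (MedChemExpress HY-L006) tested on MDA-MB-468 PTEN-null TNBC cells in 384-well plates at 0.1, 1 or 10 uM, combined with vehicle, GDC0941 450 nM or lapatinib 1 uM, for 24 h. Phospho-S6 (S240/244) immunofluorescence normalised to DAPI and expressed as a per-plate z-score; values are the mean of biological triplicates.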

[1] = compound 0.1 µM, co-treatment: GDC0941 450 nM
[2] = compound 0.1 µM, co-treatment: lapatinib 1 uM
[3] = compound 0.1 µM, co-treatment: vehicle
[4] = compound 1 µM, co-treatment: GDC0941 450 nM
[5] = compound 1 µM, co-treatment: lapatinib 1 uM
[6] = compound 1 µM, co-treatment: vehicle
[7] = compound 10 µM, co-treatment: GDC0941 450 nM
[8] = compound 10 µM, co-treatment: lapatinib 1 uM
[9] = compound 10 µM, co-treatment: vehicle

SMILES | phospho-S6 immunofluorescence (z-score) [1] | phospho-S6 immunofluorescence (z-score) [2] | phospho-S6 immunofluorescence (z-score) [3] | phospho-S6 immunofluorescence (z-score) [4] | phospho-S6 immunofluorescence (z-score) [5] | phospho-S6 immunofluorescence (z-score) [6] | phospho-S6 immunofluorescence (z-score) [7] | phospho-S6 immunofluorescence (z-score) [8] | phospho-S6 immunofluorescence (z-score) [9]
CN1CCC(=C2c3ccccc3CCc3sccc32)CC1 [Pizotifen] | -0.04 | -0.86 | 0.42 | -0.72 | -0.92 | -0.44 | 0.35 | -1.87 | -0.19
O=C(O[C@@H]1C[C@@H]2C[C@H]3C[C@H](C1)N2CC3=O)c1c[nH]c2ccccc12 [Dolasetron (Mesylate hydrate)] | 1.12 | 1.19 | -0.26 | -0.17 | 0.3 | 0.13 | 0.52 | -0.24 | 0.62
COc1cc(N)c(Cl)cc1C(=O)NC1CCN(Cc2ccccc2)CC1 [Clebopride (malate)] | 0.55 | 0.41 | 1.18 | 0.44 | 0.4 | 0.5 | 0.46 | -0.14 | 0.29
Nc1nc2c(cnn2CCc2ccccc2)c2nc(-c3ccco3)nn12 | -1.69 | 3.31 | 3.08 | -1.81 | 4.87 | 5.33 | -0.2 | 1.51 | 3.1
COc1ccc(C2CC(c3ccccc3)=NN2c2ccc(S(N)(=O)=O)cc2)cc1 (stereo unspecified) | 1.48 | 0.59 | 1.68 | 0.08 | 0.24 | 1.03 | -3.22 | -0.2 | -6.71
COC1CCC(C(=O)c2ccc3nc4c(cc3c2)CCCO4)CC1 (stereo unspecified) | 0.37 | 0.26 | 0.38 | 0.06 | -0.2 | 0.27 | -0.83 | 0.85 | 0.02
C[C@@H]1CCCN1CCc1cc2cc(-c3ccc(C#N)cc3)ccc2o1 | -0.25 | -0.39 | -0.36 | 0.79 | -0.78 | 0.56 | -3.3 | -4.56 | -0.97
CCCC(=O)Nc1ccc(OCC(O)CNC(C)C)c(C(C)=O)c1 (stereo unspecified) [Acebutolol (hydrochloride)] | 1.4 | 0.39 | 0.53 | 1.4 | 0.7 | -0.34 | 1.02 | 0.15 | -0.08
CC(=O)Oc1cc(C(C)C)c(OCCN(C)C)cc1C [Moxisylyte (hydrochloride)] | 0.26 | 0.75 | -0.45 | 0.54 | -0.29 | -1.58 | 0.49 | -0.11 | -1.23
COc1ccc2ccc(=O)oc2c1CC=C(C)C [Osthole] | -0.81 | -0.39 | 0.08 | 0.29 | -0.29 | 0.45 | 0.06 | 0.19 | 0.23
Nc1nc(-c2nn(Cc3ccccc3F)c3ncccc23)ncc1C1CC1 | -0.85 | 0.14 | -1.18 | 1.91 | 3.72 | -0.61 | 1.07 | 2.78 | -0.52
CCCN[C@H]1CCc2nc(N)sc2C1 [Pramipexole (dihydrochloride)] | 0.38 | 0.82 | 0.89 | 0.27 | 0.3 | 0.05 | 0.87 | 0.31 | 0.17
Cc1ccc(S(=O)(=O)N2CCCC2c2ccc(F)cc2)cc1 (stereo unspecified) | 0.19 | -0.25 | 0.08 | -2.27 | -0.44 | -0.3 | -2.47 | 0.46 | -1.81
O=c1ccccn1CC1(O)CCN(Cc2ccccc2)CC1 | 0.77 | 0.92 | 0.27 | 0.42 | -0.12 | -0.63 | 0.52 | -0.19 | 0.48
Cc1cc(O[C@@H](CCC(F)(F)F)c2ccc(C(=O)NCCC(=O)O)cc2)cc(C)c1-c1ccc(C(C)(C)C)cc1 [Adomeglivant] | 0.71 | -0.67 | 1.32 | -1.3 | -0.27 | 0.76 | -4.72 | -7.2 | -6.79
CC(C)COc1ccc(CNC(=O)N(Cc2ccc(F)cc2)C2CCN(C)CC2)cc1 [Pimavanserin tartrate] | -0.96 | -1.1 | -0.74 | 0.48 | -1.5 | 0.35 | -3.99 | -6.18 | -5.03
CCCCCNC(=N)N/N=C/c1c[nH]c2ccc(OC)cc12 [Tegaserod (maleate)] | -0.79 | 0.24 | 0.22 | -2.2 | -1.29 | 0.59 | -6 | -12.1 | -10.3
CC(C(=O)Nc1cc(C#N)ccc1CCCC(=O)O)c1ccc(F)c2ccccc12 (stereo unspecified) | -1.79 | 0.46 | -0.89 | -1.12 | 0.52 | -0.88 | -3.03 | -2.8 | -0.03
CCc1cc(-c2noc(-c3cc(OC)nc(C4CCCC4)c3)n2)cc(C)c1OC[C@@H](O)CO [Cenerimod] | -1.2 | -1.68 | -1.01 | -1.8 | 0.7 | -1.47 | -3.08 | -4.72 | -4.14
OCCN1CCN(CCCN2c3ccccc3Sc3ccc(Cl)cc32)CC1 [Perphenazine] | 0.22 | 0.68 | 0.94 | 1.29 | -0.67 | 0.65 | -1.28 | -5.07 | 0.82

Compounds above containing an NH in an aromatic ring (two):
SMILES | phospho-S6 immunofluorescence (z-score) [1] | phospho-S6 immunofluorescence (z-score) [2] | phospho-S6 immunofluorescence (z-score) [3] | phospho-S6 immunofluorescence (z-score) [4] | phospho-S6 immunofluorescence (z-score) [5] | phospho-S6 immunofluorescence (z-score) [6] | phospho-S6 immunofluorescence (z-score) [7] | phospho-S6 immunofluorescence (z-score) [8] | phospho-S6 immunofluorescence (z-score) [9]
O=C(O[C@@H]1C[C@@H]2C[C@H]3C[C@H](C1)N2CC3=O)c1c[nH]c2ccccc12 [Dolasetron (Mesylate hydrate)] | 1.12 | 1.19 | -0.26 | -0.17 | 0.3 | 0.13 | 0.52 | -0.24 | 0.62
CCCCCNC(=N)N/N=C/c1c[nH]c2ccc(OC)cc12 [Tegaserod (maleate)] | -0.79 | 0.24 | 0.22 | -2.2 | -1.29 | 0.59 | -6 | -12.1 | -10.3

More compounds follow:

SMILES | phospho-S6 immunofluorescence (z-score) [1] | phospho-S6 immunofluorescence (z-score) [2] | phospho-S6 immunofluorescence (z-score) [3] | phospho-S6 immunofluorescence (z-score) [4] | phospho-S6 immunofluorescence (z-score) [5] | phospho-S6 immunofluorescence (z-score) [6] | phospho-S6 immunofluorescence (z-score) [7] | phospho-S6 immunofluorescence (z-score) [8] | phospho-S6 immunofluorescence (z-score) [9]
COc1ccccc1N1CCN(CC(O)COc2cccc3ccccc23)CC1 (stereo unspecified) [Naftopidil] | 0.85 | -0.12 | 0.13 | -0.08 | 0.21 | 0.69 | -0.13 | -0.63 | 0.64
NC(=O)C(c1ccccc1)(c1ccccc1)[C@@H]1CCN(CCc2ccc3c(c2)CCO3)C1 [Darifenacin (hydrobromide)] | -0.12 | 0.82 | -0.22 | -0.22 | -0.5 | -0.75 | -1.6 | -1.5 | 0.03
CC(C)NC[C@H](O)COc1ccc(CCOCC2CC2)cc1 [Levobetaxolol (hydrochloride)] | -0.37 | -0.65 | -0.2 | -0.85 | -1.09 | 0.15 | -0.39 | -0.2 | -0.19
C=CCN1CCc2nc(N)sc2CC1 | 0.29 | 0.9 | 0.6 | 0.72 | 0.75 | 0.68 | 0.68 | 0.22 | 0.33
Nc1nc(N)nc(-c2cc(Cl)ccc2Cl)n1 [Irsogladine] | -0.67 | -0.02 | -0.88 | 0.42 | 0.25 | 0.09 | -0.7 | 0.22 | -1.11
Cc1ccc(Sc2ccccc2N2CCNCC2)c(C)c1 [Vortioxetine (hydrobromide)] | 0.31 | -0.73 | -0.99 | 0.02 | -1.59 | -0.71 | -5.79 | -11.4 | -9.37
CC[C@H](C)[C@H](NC(=O)[C@H](Cc1ccc(O)cc1)NC(=O)[C@@H]1CCCN1C(=O)[C@@H](NC(=O)[C@@H](N)CCCCN)[C@@H](C)CC)C(=O)N[C@@H](CC(C)C)C(=O)O [Neuromedin N] | -0.33 | -0.72 | -0.44 | -1.04 | -0.32 | -1.13 | 0.27 | -0.01 | -0.38
CN(C)[C@@H]1CCc2[nH]c3ccc(NC(=O)c4ccc(F)cc4)cc3c2C1 | -0.18 | -0.01 | -0.67 | -0.03 | -0.07 | -1.15 | 0.67 | -1.38 | -0.54
Cc1cc(NC(=O)Nc2ccc(N(C)C)cc2)c2cc(F)cc(F)c2n1 | -0.22 | -0.51 | -0.63 | -0.58 | -0.25 | -0.74 | -2.07 | -0.1 | -2.06
C[C@]12C=CC(=O)C=C1CC[C@@H]1[C@@H]2[C@@H](O)C[C@@]2(C)[C@H]1CC[C@]2(O)C(=O)CO [Prednisolone] | -1.53 | 0.42 | -0.63 | -1.16 | 1.12 | 0.06 | 0.01 | 1.18 | 0.05
OCCOCCN1CCN(C2=Nc3ccccc3Sc3ccccc32)CC1 [Quetiapine (fumarate)] | -1.07 | 0.4 | -0.29 | -0.34 | -1.22 | -0.4 | -0.84 | 0.29 | -0.03
CCCN(CCN1CCN(c2ccccc2OC)CC1)C1CCc2ncsc2C1 (stereo unspecified) [ST-836 (hydrochloride)] | -0.69 | -1.25 | -1.13 | -0.54 | 0.04 | -2.75 | 0.29 | -0.62 | 0.1
CCC(=O)OCC(=O)[C@@]1(OC(=O)CC)[C@@H](C)C[C@H]2[C@@H]3CCC4=CC(=O)C=C[C@]4(C)[C@@]3(Cl)[C@@H](O)C[C@@]21C [Beclometasone dipropionate] | -1.48 | 1.63 | 1.22 | 0.15 | 0.78 | 0.65 | 0.45 | 0.54 | 0.15
O=C(O)CCc1ccc(NCc2cccc(Oc3ccccc3)c2)cc1 | 0.73 | 0.84 | 1.06 | 0.71 | 0.71 | 0.63 | -0.04 | 0.32 | 1.24
Cc1nc2c([nH]1)-c1ccccc1N(C(=O)c1ccc(NC(=O)c3ccccc3-c3ccccc3)cc1)CC2 [Conivaptan (hydrochloride)] | 0.55 | -1.33 | -0.03 | 1.94 | -0.12 | 0.62 | 0.65 | 0.52 | 0.94
O=C(c1ccc(F)cc1)C1CCN(CCn2c(=O)[nH]c3ccccc3c2=O)CC1 [Ketanserin (tartrate)] | 0.29 | 0.02 | 0.51 | 1.64 | 0.3 | -0.28 | 0.46 | -0.54 | 0.68
CC[C@H](C)[C@H](NC(=O)[C@H](Cc1ccc(O)cc1)NC(=O)[C@@H](NC(=O)[C@H](CCCNC(=N)N)NC(=O)[C@@H](N)CC(=O)O)C(C)C)C(=O)N[C@@H](Cc1c[nH]cn1)C(=O)N1CCC[C@H]1C(=O)O [Angiotensin (1-7)] | -2.62 | -1.65 | -2.7 | -1.96 | -0.68 | -1.58 | 0.11 | 0.71 | -0.4
CC(C)N(CCCCOCC(=O)NS(C)(=O)=O)c1cnc(-c2ccccc2)c(-c2ccccc2)n1 | 1.03 | -1.43 | -0.51 | 0.69 | -1.06 | -0.38 | 0.87 | 0.26 | -0.38
Cn1c(=O)c2c(ncn2CC(O)CO)n(C)c1=O (stereo unspecified) [Diphylline] | 0.41 | -0.34 | 0.18 | -0.8 | -0.66 | -0.08 | -0.54 | -0.14 | -0.15
